According to PubChem BioAssay AID602254 (Broad Institute, 2012):
Out of some 1,000 compounds screened, fewer than 10 were called active.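 The calls were made as follows: active = fitted half-maximal concentration no higher than twice the top valid tested dose, with signal falling; inconclusive = flat curve with 30 to 70% inhibition, or poor fit; inactive = the rest.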 Some of the results follow. Entries with a potency or affinity are not part of this list.

What follows are compounds tested against Golgi-associated PDZ and coiled-coil motif-containing protein (Homo sapiens) (UniProt Q9HD26) (assay: CAL PDZ domain peptide-binding inhibitors, dose response, biochemical, fluorescence polarization, untagged CAL PDZ, cherry-pick, set 2 (AID 602254;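 also: 0% = DMSO neutral control and -100% = unlabeled peptide PRC23 positive control; more negative means stronger blocking of peptide binding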)). Settings: Purified CAL PDZ, TMR peptide fluorescence polarization; at 60 µM (top of the series).

Activity change, negative = inhibition, inactive:
Cc1ccc(NC(=S)Nc2ccc(OC(F)F)c(Cl)c2)cc1F -3.18%
O=C1CN(C(=O)COc2ccc(F)cc2Br)c2ccccc2N1 -1.17%
Cc1cccc(C)c1OCC(=O)N(Cc1ccc(N(C)C)cc1)C1CCS(=O)(=O)C1 (stereo unspecified) 3.25%
Clc1cccc2c1CCN(Cc1nc(-c3cnccn3)no1)C2 2.75%
CC(C)(C)N(Cc1nc(-c2ccccc2)no1)C(=O)c1ccc2c(c1)OCO2 0.223%
CC(C)c1ccc(NC2CCCN(C(=O)c3ccnn3C)C2)cc1 (stereo unspecified) -3.14%
O=C(Nc1ccccc1Cl)N1CCN(c2ccc3nnc(-c4ccccc4)n3n2)CC1 9.02%
CC(=O)Nc1ccc(NCC(=O)c2ccccc2)cc1 5.34%
CCSC1=N/C(=C\c2ccccc2)C(=O)N1 -6.79%
CCSc1nnc(NC(=O)CN2C(=O)NC3(CCCC3)C2=O)s1 -1.53%
COCC(C)N1CCC(Oc2cccc(C(=O)NCCc3ccccc3)c2)CC1 (stereo unspecified) -1.25%
CCCCN1CC(COc2ccccc2)Oc2cccc(F)c2S1(=O)=O (stereo unspecified) 2.86%
COC(=O)[C@H](CC(C)C)NC(=O)NCCC1=CCCCC1 -1.98%
CC(=O)c1cccc(CN2CCN(CC=C(C)C)C(CCO)C2)c1 (stereo unspecified) -0.044%
CCCCN1CC(CO)Oc2cccc(F)c2S1(=O)=O (stereo unspecified) 0.284%
CC(C)n1ncc2c(C(=O)NCC(=O)Nc3ccccc3Br)cc(C3CC3)nc21 6.18%
CC(=O)N(c1ccc(C)cc1)S(=O)(=O)c1ccc(Cl)cc1 -3.42%
Cc1sc(NC(=O)CN2CCCC2)nc1-c1ccc2c(c1)CCN2C(=O)c1cccc(F)c1 2.42%
O=C(CNC(=O)c1ccccc1F)OCC(=O)c1c[nH]c2ccccc12 2.21%
O=C(Nc1cnccn1)Nc1ccccc1F 2.15%
CCOC(=O)c1sc(NC(=O)Nc2ccc(Cl)cc2)nc1C 0.778%
CCCCCCC(=O)Nc1ccc(Br)cn1 0.397%
c1ccc(-c2ccccc2OCCOCCN2CCc3ccccc3C2)cc1 -1.05%
CC(C)(C)n1ncc2c(=O)n(Cc3ccc(Cl)c(Cl)c3)cnc21 -3.02%
Cc1c(NC2(C#N)CCCC2)c(=O)n(-c2ccccc2)n1C 1.49%
O=C(COC(=O)c1cnccn1)Nc1ncc(C(F)(F)F)cc1Cl -0.286%
COc1ccc(C2C(C(=O)N3CCOCC3)CCC(=O)N2c2ccc(OC)cc2)cc1 (stereo unspecified) -0.127%
O=C(Cn1cnc(S(=O)(=O)N2CCCC2)c1)Nc1cccc(Br)c1 1.8%
Nc1ccc(Nc2nc(-c3cc4ccccc4oc3=O)cs2)cc1 -1.41%
COc1ccccc1-c1ccc(SCc2ccc(F)cc2)nn1 -3.29%
CCCCOc1ccc(NC(=O)Nc2nnc(C)s2)cc1 -7.21%
COc1ccc(NC(C)=O)cc1NC(C)c1nc2sc(C)c(C)c2c(=O)[nH]1 (stereo unspecified) -1.45%
Cc1cc(C(=O)NCC2COc3ccccc3O2)c2ccccc2n1 (stereo unspecified) -4.37%
CCN(CC)c1ccc(NC(=O)C2CC(=O)N(Cc3ccccc3)C2)cc1 (stereo unspecified) 0.173%
O=C(COC(=O)c1cccc(-n2cnnn2)c1)Nc1c(Cl)cccc1C(F)(F)F 0.704%
O=C(N/N=C/c1ccc(OCc2ccccc2)cc1)c1ccc(O)cc1 1.59%
CC(NC(=O)COc1ccccc1)C(=O)N1CCN(c2ccc(F)cc2)CC1 (stereo unspecified) -1.4%
CCn1c(/C=C/c2ccccc2C)nc2ccccc2c1=O 1.73%
CN1CCN(C(=O)CC2C(=O)NCCN2Cc2ccc(-c3ccccc3)cc2)CC1 (stereo unspecified) -0.985%
Cc1cccc(NC(=O)CN2C(=O)N/C(=C/c3cc(C)n(-c4cccnc4)c3C)C2=O)c1 1.04%
Cn1c(=O)c2[nH]c(CCc3ccncc3)nc2n(C)c1=O 0.975%
CCN(CC(=O)NCc1cccs1)C(=O)c1ccccc1Cl -2.3%
Cc1ccc(S(=O)(=O)N(C)c2ccc(OC(=O)c3cccs3)cc2)cc1C 0.715%
Cn1c(=O)oc2cc(S(=O)(=O)N3CCC(C(=O)NCc4ccccc4Cl)CC3)ccc21 -1.41%
CCCCCN1CSC(=S)N(Cc2ccccc2)C1 -0.886%
O=C(C1CC(=O)N(c2ccc3c(c2)OCCO3)C1)N1CCN(c2ccccc2)CC1 (stereo unspecified) 0.502%
COCCNC(=O)c1cc2cc(Br)cc(Br)c2oc1=O -1.57%
COc1ccc(CNc2ccc(-c3ccccc3OC)nn2)cc1 7.46%
CCc1ccc(NC(=S)NCc2ccccc2)cc1 4.25%
COc1ccc(C(CNC(=O)C2COc3ccccc3O2)N2CCCC2)cc1 (stereo unspecified) 0.222%
CC(CC(=O)O)CC(=O)Nc1nncs1 (stereo unspecified) -2.91%
CC(=O)N1CCc2cc(S(=O)(=O)NCC(=O)NCc3ccc(Cl)cc3)ccc21 -0.918%
O=C(CCN1C(=O)/C(=C/c2cccs2)SC1=S)N1CCCCC1 2.71%
Cc1ccc(N(C)C(=O)C2CCCN2S(=O)(=O)c2cccc3nsnc23)cc1 (stereo unspecified) 0.114%
N#CCC(=O)Nc1ccc(C(=O)OCC(=O)NC(=O)Nc2ccc3c(c2)OCCO3)cc1 3.72%
O=C(c1ccc(-c2ccccc2)cc1)N1CCN(c2ccccn2)CC1 3.69%
Cc1cc(C)c(C#N)c(Nc2cccc(C)c2C)n1 3.29%
CCN(C(=O)c1ccc(NC(=O)Cc2ccccc2)cc1)c1ccccc1 1.07%
Cc1nn(CC(=O)NCCc2ccccc2)c(=O)c2cccn12 2.33%
COc1ccc(CCC(=O)Nc2ncc(C)s2)cc1OC -1.11%
COc1ccccc1N1CCN(/N=C/c2ccc(O)cc2O)CC1 -1.14%

Ordered by heavy-atom count (low to high): 5 of the compounds above
Activity change, negative = inhibition, inactive:
Cc1cc(C)c(C#N)c(Nc2cccc(C)c2C)n1 3.29%
Nc1ccc(Nc2nc(-c3cc4ccccc4oc3=O)cs2)cc1 -1.41%
CC(C)n1ncc2c(C(=O)NCC(=O)Nc3ccccc3Br)cc(C3CC3)nc21 6.18%
Cn1c(=O)oc2cc(S(=O)(=O)N3CCC(C(=O)NCc4ccccc4Cl)CC3)ccc21 -1.41%
Cc1sc(NC(=O)CN2CCCC2)nc1-c1ccc2c(c1)CCN2C(=O)c1cccc(F)c1 2.42%
